No constants are given. Whether binding was seen depends on the method and setting. Binding seen in cells or lysates may run through a third protein. These calls come from enrichment with a bait or labelling near it, and not all partners need be listed.
Molecular target: RNA polymerase I subunit RPA1 with genomic C-terminal sfGFP fusion (human (endogenous in HeLa)) (UniProt O95602)
Test: affinity purification with mass spectrometry; RPA1-sfGFP captured from HeLa POLR1A-sfGFP whole-cell lysate on GFP-Trap Dynabeads, washes with 420 mM NaCl, elution with 3C protease; gel bands identified by mass spectrometry

Chains of the proteins cited; added tags and fusions are not shown.
UniProt O95602: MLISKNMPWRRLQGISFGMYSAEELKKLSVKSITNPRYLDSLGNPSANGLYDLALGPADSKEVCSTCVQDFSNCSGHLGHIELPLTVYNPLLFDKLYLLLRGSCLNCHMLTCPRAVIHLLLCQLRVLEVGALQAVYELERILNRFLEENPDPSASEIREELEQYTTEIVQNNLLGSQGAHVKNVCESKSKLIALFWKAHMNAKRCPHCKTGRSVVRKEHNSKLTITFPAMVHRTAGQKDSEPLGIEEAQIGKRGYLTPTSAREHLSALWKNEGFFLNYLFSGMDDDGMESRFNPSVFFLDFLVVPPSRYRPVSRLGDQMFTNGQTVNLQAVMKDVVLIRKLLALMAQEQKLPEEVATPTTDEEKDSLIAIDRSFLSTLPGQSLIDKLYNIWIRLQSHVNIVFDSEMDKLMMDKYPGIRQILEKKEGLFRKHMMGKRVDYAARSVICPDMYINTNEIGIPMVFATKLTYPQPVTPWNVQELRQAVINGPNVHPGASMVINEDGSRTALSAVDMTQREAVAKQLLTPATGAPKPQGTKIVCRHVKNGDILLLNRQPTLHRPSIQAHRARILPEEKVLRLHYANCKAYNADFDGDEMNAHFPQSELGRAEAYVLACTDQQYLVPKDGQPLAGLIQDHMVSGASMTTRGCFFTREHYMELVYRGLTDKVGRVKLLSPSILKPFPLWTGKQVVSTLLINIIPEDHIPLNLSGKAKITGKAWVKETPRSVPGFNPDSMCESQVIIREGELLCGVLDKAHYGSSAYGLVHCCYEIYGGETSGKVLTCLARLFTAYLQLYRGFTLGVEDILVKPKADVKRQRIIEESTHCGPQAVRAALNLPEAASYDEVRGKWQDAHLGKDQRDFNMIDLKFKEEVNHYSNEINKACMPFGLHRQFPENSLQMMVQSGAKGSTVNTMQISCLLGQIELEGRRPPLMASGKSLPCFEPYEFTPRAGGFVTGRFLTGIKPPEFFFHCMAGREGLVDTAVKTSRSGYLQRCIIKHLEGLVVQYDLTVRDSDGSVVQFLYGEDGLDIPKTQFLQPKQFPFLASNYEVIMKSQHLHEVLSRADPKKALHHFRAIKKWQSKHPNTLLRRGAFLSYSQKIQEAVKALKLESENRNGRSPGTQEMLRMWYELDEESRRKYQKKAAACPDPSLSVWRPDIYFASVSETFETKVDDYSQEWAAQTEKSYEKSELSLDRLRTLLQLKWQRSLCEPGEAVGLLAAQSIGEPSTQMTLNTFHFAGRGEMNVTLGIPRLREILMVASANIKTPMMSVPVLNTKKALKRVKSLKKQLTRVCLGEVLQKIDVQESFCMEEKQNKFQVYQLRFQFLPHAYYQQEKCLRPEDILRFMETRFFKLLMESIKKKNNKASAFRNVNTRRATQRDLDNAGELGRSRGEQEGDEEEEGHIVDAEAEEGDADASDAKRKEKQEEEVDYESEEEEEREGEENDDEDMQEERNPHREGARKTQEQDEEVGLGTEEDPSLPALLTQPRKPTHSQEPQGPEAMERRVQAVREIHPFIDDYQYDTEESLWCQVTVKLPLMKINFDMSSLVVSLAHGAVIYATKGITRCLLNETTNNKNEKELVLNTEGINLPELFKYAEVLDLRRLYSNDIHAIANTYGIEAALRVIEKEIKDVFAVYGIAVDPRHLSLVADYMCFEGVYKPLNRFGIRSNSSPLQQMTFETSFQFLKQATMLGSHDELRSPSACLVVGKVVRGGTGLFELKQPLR
UniProt O15446: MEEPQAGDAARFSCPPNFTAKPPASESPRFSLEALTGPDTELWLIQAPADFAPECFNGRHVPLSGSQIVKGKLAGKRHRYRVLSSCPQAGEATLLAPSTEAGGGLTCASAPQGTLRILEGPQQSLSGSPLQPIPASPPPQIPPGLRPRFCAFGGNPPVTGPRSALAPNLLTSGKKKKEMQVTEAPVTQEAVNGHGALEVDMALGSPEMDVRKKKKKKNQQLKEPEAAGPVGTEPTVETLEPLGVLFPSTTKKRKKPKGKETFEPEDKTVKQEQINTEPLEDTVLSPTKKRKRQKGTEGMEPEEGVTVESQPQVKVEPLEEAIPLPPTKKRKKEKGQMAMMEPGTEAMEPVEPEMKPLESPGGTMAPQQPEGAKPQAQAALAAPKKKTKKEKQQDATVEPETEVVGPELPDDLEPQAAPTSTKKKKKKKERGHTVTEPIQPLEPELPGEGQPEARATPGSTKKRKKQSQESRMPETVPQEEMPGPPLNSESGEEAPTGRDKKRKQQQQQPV
UniProt Q9GZS1: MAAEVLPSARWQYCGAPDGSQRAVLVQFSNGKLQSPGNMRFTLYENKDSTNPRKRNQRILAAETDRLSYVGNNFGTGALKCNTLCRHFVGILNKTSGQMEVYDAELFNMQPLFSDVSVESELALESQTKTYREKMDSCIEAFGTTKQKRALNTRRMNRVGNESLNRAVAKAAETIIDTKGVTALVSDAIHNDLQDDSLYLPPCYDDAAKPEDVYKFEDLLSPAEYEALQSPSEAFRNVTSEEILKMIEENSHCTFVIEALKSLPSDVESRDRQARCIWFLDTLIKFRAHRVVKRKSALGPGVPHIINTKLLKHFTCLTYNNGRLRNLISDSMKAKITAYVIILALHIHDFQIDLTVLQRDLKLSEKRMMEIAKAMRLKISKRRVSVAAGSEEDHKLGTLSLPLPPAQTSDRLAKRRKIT
UniProt Q9NYV6: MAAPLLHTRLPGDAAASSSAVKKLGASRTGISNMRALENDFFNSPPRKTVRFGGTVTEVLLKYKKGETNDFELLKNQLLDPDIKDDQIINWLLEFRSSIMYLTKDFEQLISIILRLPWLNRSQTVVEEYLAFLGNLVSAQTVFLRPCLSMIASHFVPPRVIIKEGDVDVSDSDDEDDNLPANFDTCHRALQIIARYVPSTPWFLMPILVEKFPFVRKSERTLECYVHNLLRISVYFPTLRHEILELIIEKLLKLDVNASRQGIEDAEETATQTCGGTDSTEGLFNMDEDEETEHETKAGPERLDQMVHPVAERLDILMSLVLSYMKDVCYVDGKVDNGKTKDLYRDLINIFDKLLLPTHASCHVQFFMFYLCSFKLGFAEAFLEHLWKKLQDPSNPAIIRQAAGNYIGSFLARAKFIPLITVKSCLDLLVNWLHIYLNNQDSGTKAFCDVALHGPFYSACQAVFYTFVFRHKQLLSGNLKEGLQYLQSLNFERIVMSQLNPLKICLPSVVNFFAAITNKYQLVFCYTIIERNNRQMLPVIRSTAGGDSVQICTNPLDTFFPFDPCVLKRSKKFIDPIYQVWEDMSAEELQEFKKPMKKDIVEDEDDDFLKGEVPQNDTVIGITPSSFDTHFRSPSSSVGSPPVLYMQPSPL

Substance: RNA polymerase I subunit RPA34 (from UniProt O15446 1-510)
- binding: binds

Substance: RNA polymerase I subunit RPA49 (from UniProt Q9GZS1 1-419)
- binding: binds

Substance: initiation factor RRN3 (from UniProt Q9NYV6 1-651)
- binding: binds
